These results are taken from paper PMC6220335, “Molecular structure of promoter-bound yeast TFIID” (Nature Communications, 2018).

This assay addresses T1, Taf1 (TBP-associated factor 1), subunit of Komagataella phaffii TFIID (Komagataella phaffii) (UniProt F2QMX2).
T1 sequence: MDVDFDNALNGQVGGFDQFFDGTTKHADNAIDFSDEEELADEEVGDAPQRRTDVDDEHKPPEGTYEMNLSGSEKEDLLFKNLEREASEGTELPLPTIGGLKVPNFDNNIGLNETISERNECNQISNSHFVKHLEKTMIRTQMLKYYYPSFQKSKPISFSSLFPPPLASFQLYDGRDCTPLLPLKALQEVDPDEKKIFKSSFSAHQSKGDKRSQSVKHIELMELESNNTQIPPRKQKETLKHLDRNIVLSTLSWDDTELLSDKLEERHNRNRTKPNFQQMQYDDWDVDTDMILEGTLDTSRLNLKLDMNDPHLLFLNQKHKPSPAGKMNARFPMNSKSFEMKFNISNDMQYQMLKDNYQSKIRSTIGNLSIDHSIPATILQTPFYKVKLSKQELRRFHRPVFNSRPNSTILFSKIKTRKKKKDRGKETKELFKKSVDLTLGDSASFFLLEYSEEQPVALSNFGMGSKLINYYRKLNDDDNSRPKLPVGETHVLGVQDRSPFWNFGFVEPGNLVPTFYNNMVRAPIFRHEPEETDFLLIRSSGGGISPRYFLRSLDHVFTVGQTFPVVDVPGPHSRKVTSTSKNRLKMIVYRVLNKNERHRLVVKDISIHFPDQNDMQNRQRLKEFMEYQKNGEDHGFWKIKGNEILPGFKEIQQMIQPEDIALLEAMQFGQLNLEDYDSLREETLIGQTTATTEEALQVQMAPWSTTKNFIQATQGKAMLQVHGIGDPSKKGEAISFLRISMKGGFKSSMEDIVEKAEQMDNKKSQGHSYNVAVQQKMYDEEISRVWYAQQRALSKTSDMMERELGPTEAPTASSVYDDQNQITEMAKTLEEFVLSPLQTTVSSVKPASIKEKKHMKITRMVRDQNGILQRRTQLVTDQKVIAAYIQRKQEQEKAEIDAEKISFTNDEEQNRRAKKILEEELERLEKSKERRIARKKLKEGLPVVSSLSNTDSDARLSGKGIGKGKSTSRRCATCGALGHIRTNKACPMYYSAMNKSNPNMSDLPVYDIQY
Briefly: cross-linking; 50 µg purified TFIID, 3 mM BS3, 2 h at 25 °C; trypsin, SCX fractionation, Orbitrap Fusion MS; pLink and Nexus, 5% FDR; both purified.

These are yes or no findings as the source states them, for the method shown. Binding can be weak; no strength is given.

“TATA-box Binding Protein (TBP), subunit of Komagataella phaffii TFIID”: the binding entry is listed as “binds”.
